Patent publication US20110312894A1 (priority 2009, published 2011)
Results are given in words; binding and its absence hold for the method and conditions named. Binding seen in cells or lysates may run through a third protein. Some results given as binding are weak or reduced against the parent protein; the word gives no strength.

Sequences of proteins named here, by UniProt entry; tags and fusion partners are left off. A change or cut given only in a name is not applied to a line headed by its entry. Residues count along the entry.
UniProt P49582, residues 23-502: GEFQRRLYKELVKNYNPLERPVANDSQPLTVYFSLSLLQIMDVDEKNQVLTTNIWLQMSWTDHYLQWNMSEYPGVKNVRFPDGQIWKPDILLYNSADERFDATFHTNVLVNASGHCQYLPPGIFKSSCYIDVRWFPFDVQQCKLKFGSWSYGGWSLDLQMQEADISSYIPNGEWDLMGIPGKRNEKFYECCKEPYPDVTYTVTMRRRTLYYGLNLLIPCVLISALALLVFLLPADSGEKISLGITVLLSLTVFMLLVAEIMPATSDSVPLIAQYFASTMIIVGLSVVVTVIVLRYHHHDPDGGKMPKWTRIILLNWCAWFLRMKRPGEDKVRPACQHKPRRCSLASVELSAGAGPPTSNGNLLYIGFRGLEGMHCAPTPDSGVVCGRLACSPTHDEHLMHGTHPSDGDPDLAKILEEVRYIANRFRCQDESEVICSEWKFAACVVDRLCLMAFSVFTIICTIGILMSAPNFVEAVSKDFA
UniProt Q9ERK7: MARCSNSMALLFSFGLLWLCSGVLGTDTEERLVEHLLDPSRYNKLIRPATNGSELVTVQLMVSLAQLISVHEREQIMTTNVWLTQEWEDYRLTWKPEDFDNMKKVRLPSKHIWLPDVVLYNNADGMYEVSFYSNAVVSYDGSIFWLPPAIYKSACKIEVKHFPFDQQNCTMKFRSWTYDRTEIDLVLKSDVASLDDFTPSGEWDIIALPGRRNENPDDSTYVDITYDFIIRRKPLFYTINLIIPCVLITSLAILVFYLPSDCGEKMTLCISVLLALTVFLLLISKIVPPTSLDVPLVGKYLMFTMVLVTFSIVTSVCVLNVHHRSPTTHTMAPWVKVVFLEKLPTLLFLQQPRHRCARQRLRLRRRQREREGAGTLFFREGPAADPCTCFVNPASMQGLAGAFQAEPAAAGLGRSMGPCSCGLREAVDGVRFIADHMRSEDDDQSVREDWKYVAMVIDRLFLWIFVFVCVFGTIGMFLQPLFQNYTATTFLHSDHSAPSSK

Target: mouse nicotinic acetylcholine receptor (nAChR) α7 subunit (mouse) (UniProt P49582)
Test: co-immunoprecipitation from MS/DB extract of wild-type mice: IP with H302 anti-α7, immunoblot with mAb270 anti-β2

binding: binds
Substance: mouse nicotinic acetylcholine receptor (nAChR) β2 subunit (from UniProt Q9ERK7 26-501)
